Our source for the AC50 values is PubChem BioAssay AID1487 (National Center for Advancing Translational Sciences (NCATS), 2009).

The experiment can be described thus: qHTS Assay for Modulators of Lamin A Splicing. The following applies: HeLa LMNA splicing GFP/RFP minigene ratio, 48 h. In a few lines:
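S3 HeLa cells stably expressing lamin A-EGFP splicing minigene plus DsRed2, 600 cells/well, 48 h compound exposure at 37C. Laser-scanning cytometry; analysed as GFP (500-530 nm)/RFP (575-640 nm) total intensity ratio; 0.5% DMSO vehicle.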

The mark [1] stands for this setting: measured here: RFP viability control channel.
Setting [2] is: measured here: GFP splicing reporter channel.

Some of the results follow. Further columns of the screen follow, without active or inactive calls. The list favours compounds with an active or inconclusive main result. Potencies come from curve fits of mixed quality, noted in brackets.

For `COc1ccc(CN(Cc2ccc(OC)cc2)S(=O)(=O)c2ccc(-n3cnnn3)c(C)c2)cc1`, the AC50 under setting [1] is 22.4 µM [rising, partial curve, poor fit].

With `COc1ccc(NC(=O)Cc2ccc(-c3ccccc3)cc2)cn1`, under setting [1], the AC50 is 2.82 µM [rising, full curve]. Take `CCCCC(=O)Nc1cc(-c2nc3cccnc3s2)ccc1C`: the AC50 was 35.5 µM [falling, single point] under setting [2] and 35.5 µM [falling, single point] under setting [1]. For `O=S(=O)(c1ccccc1)c1ccc(NCc2ccco2)cc1`, the AC50 was 14.1 µM [rising, partial curve] under setting [2] and 15.8 µM [rising, single point] under setting [1].

Regarding `O=C1/C(=C/c2ccc(N3CCCC3)cc2)NC(=S)N1C1CC1`, the AC50 under setting [2] was 22.4 µM [rising, single point]. As for `O=C(NC1CCN(Cc2ccccc2)CC1)C1CCN(c2nnc(-n3cccc3)s2)CC1`, the AC50 under setting [1] was 25.1 µM [rising, single point]. Same read-out and setting: the same measure for `Cc1cc2c(cc1S(=O)(=O)NCc1ccccc1)OCC(=O)N2`: 35.5 µM [rising, single point].

As to `CSc1ccc(CN(C)CC(=O)NCc2ccc(F)cc2)cc1`, under setting [1], the AC50 is 6.31 µM [falling, single point]. As to `CCNc1ncc2nc(-c3cccs3)c(=O)n(CCC#N)c2n1`, the concentration at half-maximal activity (AC50) under setting [2] is 0.316 µM [falling, full curve, poor fit].

In the case of `CSc1nsc(SCC(=O)N2CCN(c3ccccc3)CC2)n1`, the AC50 under setting [1] was 14.1 µM [rising, single point]. Consider `CC(C)(C)c1ccc(C(=O)Nc2ccc(C(=O)OCc3cc(=O)n4ccsc4n3)cc2)cc1`, for which the AC50 reads like this: under setting [2], 14.1 µM [falling, single point]; under setting [1], 15.8 µM [falling, single point]. `CC(C)=CCC/C(C)=C/C=C/C(C)=C/C=C/C(C)=C/C=C/C=C(C)/C=C/C=C(C)/C=C/C=C(\C)CCC=C(C)C`: the AC50 is 11.2 µM [rising, partial curve] under setting [2] and 11.2 µM [rising, partial curve] under setting [1]. Regarding `O=C(c1ccco1)N1CCN(Cc2cn[nH]c2-c2ccc(F)cc2F)CC1`, the AC50 under setting [1] is 2.51 µM [falling, partial curve, poor fit]. Still for that read-out and setting: the same measure for `O=c1c2sccc2nc(SCc2cc(=O)n3ccccc3n2)n1Cc1ccccn1`: 35.5 µM [rising, single point]. For `CC1=C(/C=C/C(C)=C/C=C/C(C)=C/C(=O)O)C(C)(C)CCC1`, the AC50 under setting [2] is 0.0158 µM [falling, single point].

With `CCCCCCCCCCC(=O)NNC(=O)c1c(O)c2ccccc2n(CC)c1=O`, the AC50 reads like this: under setting [2], 0.0398 µM [rising, full curve, poor fit]; under setting [1], 2.82 µM [rising, full curve]. As for `CCN(C(=O)CCS(=O)(=O)c1ccc2c(c1)oc(=O)n2C)c1ccc(OC)cc1`, the AC50 under setting [2] was 1.78 µM [falling, full curve, poor fit] and the AC50 under setting [1] is 1.41 µM [falling, full curve]. On to `Cc1ccc(OC(C)C(=O)Nc2ccc(C)c(S(=O)(=O)Nc3ccc(C)cc3C)c2)cc1` (stereo not drawn), for which the AC50 reads like this: under setting [2], 15.8 µM [rising, single point]; under setting [1], 31.6 µM [rising, single point]. Regarding `COc1ccc(N2CC(O)=C(c3nc(-c4ccc(Br)cc4)cs3)C2=N)cc1`, the AC50 under setting [2] is 10 µM [falling, partial curve]. For `Cc1ccccc1NS(=O)(=O)c1ccc2c(c1)NC(=O)CCS2`, the AC50 reads like this: under setting [2], 0.0562 µM [falling, full curve, poor fit]; under setting [1], 0.0316 µM [falling, full curve, poor fit]. For `Cc1cc(C)c(Cc2c(C)nc3c(C(=O)NCc4ccco4)cnn3c2C)c(C)c1`, the AC50 is 2.82 µM [rising, partial curve] under setting [2] and 28.2 µM [falling, single point] under setting [1].

Regarding `O=C(NNC(=S)Nc1ccc(F)c(Cl)c1)c1ccccc1Br`, the AC50 is, setting by setting: under setting [2], 12.6 µM [rising, single point]; under setting [1], 14.1 µM [rising, single point]. In the case of `S=c1[nH]nc(-c2ccccc2Cl)n1Cc1ccccc1`, the AC50 under setting [2] is 0.01 µM [rising, full curve]. Take `Fc1ccc(Br)cc1C1C=C(c2ccc(Br)cc2)Nc2ncnn21` (stereo not drawn): under setting [1], the AC50 is 2.82 µM [rising, full curve, poor fit]. `COc1ccc(-c2noc(CCC(=O)NCc3cccnc3)n2)cc1`: the AC50 under setting [1] is 15.8 µM [rising, single point]. Take `CN[C@H]1[C@H](O)[C@@H](O[C@@H]2[C@H](O)[C@@H](O[C@H]3OC(CN)=CC[C@H]3N)[C@@H](N)C[C@H]2N)OC[C@@]1(C)O`: the AC50 is, setting by setting: under setting [2], 1 µM [falling, partial curve, poor fit]; under setting [1], 14.1 µM [falling, single point]. As for `Cc1ccc(-n2[nH]c(C)c(/C=N/Nc3ccc([N+](=O)[O-])cc3[N+](=O)[O-])c2=O)cc1C`, the concentration at half-maximal activity (AC50) under setting [1] was 12.6 µM [rising, partial curve, poor fit]. In the case of `CCN1c2ccccc2NC2C1C(C(C)=O)C(=O)N2c1ccc(Cl)cc1` (stereo not drawn), the AC50 under setting [2] is 6.31 µM [falling, single point] and the AC50 under setting [1] is 6.31 µM [falling, single point]. As for `CCN(Cc1cnn(C)c1)Cc1nc(C(c2ccccc2)c2ccccc2)no1`, the AC50 reads like this: under setting [2], 0.398 µM [rising, partial curve, poor fit]; under setting [1], 22.4 µM [rising, partial curve, poor fit]. `Cc1nc(C)n(CC(O)COc2ccc(C(=O)c3ccccc3)cc2)n1` (stereo not drawn): the AC50 is, setting by setting: under setting [2], 12.6 µM [rising, single point]; under setting [1], 22.4 µM [rising, single point].

In the case of `C1CCC(Nc2nc3nonc3nc2N2CCSCC2)C1`, the AC50 under setting [1] was 0.0562 µM [falling, full curve, poor fit].

Turning to `CCOC(=O)C(=Cc1ccc(F)cc1)C(=O)OCC`, the AC50 runs as follows: under setting [2], 15.8 µM [falling, partial curve]; under setting [1], 8.91 µM [falling, partial curve]. Turning to `O=C(NCCc1ccc(Cl)cc1)c1n[nH]c2ccccc12`, the AC50 under setting [2] is 1.41 µM [falling, full curve, poor fit].
